Experimental findings from patent publication US20130035289A1, “PHARMACEUTICAL COMPOSITION FOR TREATMENT OF THROMBOSIS-RELATED DISEASES COMPRISING A FRAGMENT OF PROLACTIN (PRL)-GROWTH HORMONE (GH)-PLACENTAL LACTOGEN (PL)-FAMILY PROTEIN” (UNIVERSITE DE LIEGE, priority 2010, published 2013) are described below.

No constants are given. Whether binding was seen depends on the method and setting. For some assays here: In cells and extracts the contact can be indirect. Some binding calls cover weakened binding; strength is not graded here.

The target of experiment [1] is T1, Endogenous murine PAI-1 (mouse plasma) (mouse) (UniProt P22777).
T1 sequence (looked up): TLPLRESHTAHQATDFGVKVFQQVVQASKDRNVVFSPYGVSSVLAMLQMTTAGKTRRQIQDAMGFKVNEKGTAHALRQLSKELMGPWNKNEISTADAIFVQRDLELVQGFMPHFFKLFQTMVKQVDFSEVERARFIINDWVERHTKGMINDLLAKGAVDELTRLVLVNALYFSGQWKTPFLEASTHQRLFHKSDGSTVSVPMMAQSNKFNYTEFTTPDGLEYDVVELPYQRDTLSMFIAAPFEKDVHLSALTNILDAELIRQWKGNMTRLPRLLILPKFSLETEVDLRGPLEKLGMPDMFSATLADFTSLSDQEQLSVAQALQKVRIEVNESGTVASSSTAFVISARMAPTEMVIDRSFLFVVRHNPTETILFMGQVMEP
Description: co-immunoprecipitation from mouse plasma, Western blot.

The target in experiment [2] is T1, Endogenous murine PAI-1 (mouse plasma) (mouse). The experiment can be described thus: immunoprecipitation of PAI-1 from mouse plasma, Western blot for 16K PRL. (Immunoblotting shows a protein as a band on a membrane.)

B1: Recombinant 16K N-terminal human prolactin (16K hPRL) (protein, UniProt P01236 29-167, looked up)
chain: LPICPGGAARCQVTLRDLFDRAVVLSHYIHNLSSEMFSEFDKRYTHGRGFITKAINSCHTSSLATPEDKEQAQQMNQKDFLSLIVSILRSWNEPLYHLVTEVRGMQEAPEAILSKAVEIEEQTKRLLEGMELIVSQVHP
Consider B1, for which the binding entry in experiment [1] and in experiment [2] was “binds” each time.
